The values below come from article PMC11091888, “Evaluation of Fusobacterium nucleatum Enoyl-ACP Reductase (FabK) as a Narrow-Spectrum Drug Target” (ACS Infectious Diseases, 2024).

The data set in a line: Cytotoxicity against HCT116 cells (resazurin viability). Conditions: human, maximum tested concentration 100 μg/mL. The data set is classed as cell-based. As to the method:
This was done as described[36] using colorectal carcinoma HCT116 and Vero epithelial cells cultured at 37 °C in 5% CO2 in Dulbecco’s modified Eagle’s medium (DMEM) with 4.5 g/L glucose and L-glutamine. The medium was supplemented with 10% v/v FetalGro (Rocky Mountain Biologicals). Approximately 25,000/well were aliquoted into black 96-well plates (Greiner Bio-One) and incubated overnight, before being resuspended in DMEM supplemented with 20% Gibco KnockOut Serum Replacement (Thermo Fisher Scientific). Compounds (100–1.6 μg/mL) were then added to the cells and incubated for 24 h at 37 °C and 5% CO2. Cell viability was analyzed using resazurin as described.[36]
(Resazurin is reduced to fluorescent resorufin, in cell work by metabolically active cells.)

Each structure is given as a SMILES string. Converted amounts (≈) assume the structure as drawn.

Turning to `CN[C@@H]1C[C@H]2O[C@@](C)([C@@H]1OC)n1c3ccccc3c3c4c(c5c6ccccc6n2c5c31)C(=O)NC4` [staurosporine, reference compound], the half-inhibitory concentration (IC50) (usually the concentration that inhibits the measured activity by half) at 24 h was 32.6 ± 14.2 µg/mL (≈ 69.9 µM).
